At least one compound was matched to its structure with a doubt left. Some results were stated once for a whole list of compounds, not compound by compound.
Test system: human acid alpha glucosidase (GAA) expressed from rAAV-GAA
Test: Serum GAA by ELISA in piglets given rAAV-GAA after antibiotic or antibiotic plus steroid treatment
Type: in vivo

## CN(C)[C@@H]1C(O)=C(C(N)=O)C(=O)[C@@]2(O)C(O)=C3C(=O)c4c(O)cccc4[C@@](C)(O)[C@H]3C[C@@H]12 [tetracycline, Tetracycline]
i.m. pretreatment six hours prior to rAAV-GAA (2×10^12 particles per piglet), tetracycline 5-50 mg/kg/day, steroid 1-25 mg/kg/day, serum day 4
  GAA expression with increasing doses: enhanced GAA expression in a dose-dependent manner
Prednisone 25 mg/kg/day from 24 h before rAAV-GAA, tapered to week 15, tetracycline 15 mg/kg/day weeks 16-24
  GAA level/expression vs control piglets: enhanced GAA expression
Pretreatment before rAAV-GAA 2×10^12 particles per piglet, serum day 4
  increase in the levels of serum GAA vs PBS-pretreated control: up to eight-fold
Single dose rAAV-GAA 2×10^12 particles per piglet, sera 1-24 weeks post vector
  duration of detectable GAA levels vs PBS-pretreated control: up to 3 fold longer
Tetracycline 5-50 mg/kg/day, alone or with tapering prednisone from 25 mg/kg
  GAA levels increased vs control piglets: up to 10 fold
